Test results published in the supplement of paper PMC3334620.
Whole data set: some 33,000 sequences, median “E-score (-0.5 to 0.5)” near -0.0014, cut for the highest 2% near 0.25. Some of the results follow.

Molecular target: T1, Cad1 (UniProt P24813)
T1 sequence: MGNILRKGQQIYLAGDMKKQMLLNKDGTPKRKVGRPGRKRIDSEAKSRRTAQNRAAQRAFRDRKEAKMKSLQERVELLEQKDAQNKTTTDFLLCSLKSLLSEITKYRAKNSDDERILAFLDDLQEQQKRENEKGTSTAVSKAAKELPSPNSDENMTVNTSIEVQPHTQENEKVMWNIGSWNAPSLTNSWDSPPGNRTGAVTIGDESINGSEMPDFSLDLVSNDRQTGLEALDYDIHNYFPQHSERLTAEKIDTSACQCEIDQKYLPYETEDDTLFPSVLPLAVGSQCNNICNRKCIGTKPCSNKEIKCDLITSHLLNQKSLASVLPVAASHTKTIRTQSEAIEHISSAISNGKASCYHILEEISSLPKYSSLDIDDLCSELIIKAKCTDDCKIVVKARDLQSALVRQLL
Test: PBM E-score (8-mer binding enrichment) (E-score (-0.5 to 0.5)); higher = stronger / more preferred TF binding
Settings: protein concentration: 100 nM; construct: GST-full length
Procedure, shortened: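 Each ungapped eight-base word and its reverse complement, pooled, received an E-score from the Universal PBM Analysis Suite. Underlying scans, normalised with masliner, recorded fluorescent anti-GST bound to GST-tagged yeast transcription factors. These were applied at about 100-200 nM to universal all-10-mer Agilent arrays double-stranded by primer extension.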

Question: AACCCACT was tested. Which “PBM E-score” value did it give?
Answer: 0.129

Question: For CTTGGAAA, which “PBM E-score” value is on record?
Answer: -0.0032

Question: For CCCGCTTC, which “PBM E-score” value is on record?
Answer: -0.132

Question: GTTAAAAA was tested. Which “PBM E-score” value did it give?
Answer: 0.0639

Question: Which “PBM E-score” value does the source give for ATCAATTC here?
Answer: -0.026

Question: Which “PBM E-score” value does the source give for ACCAGCCT here?
Answer: -0.0343

Question: For GCTTGTCC, which “PBM E-score” value is on record?
Answer: 0.0808

Question: For CCAGCGAG, which “PBM E-score” value is on record?
Answer: -0.105

Question: AGCCGGAG was tested. Which “PBM E-score” value did it give?
Answer: 0.0999

Question: How did the “PBM E-score” value turn out when AGGATCGA was run?
Answer: -0.0677

Question: ACAGGCAT was tested. Which “PBM E-score” value did it give?
Answer: -0.0751

Question: Which “PBM E-score” value does the source give for GTATACAC here?
Answer: 0.173

Question: CCTGAACC was tested. Which “PBM E-score” value did it give?
Answer: 0.0977

Question: How did the “PBM E-score” value turn out when GAAGGCAC was run?
Answer: -0.0389

Question: How did the “PBM E-score” value turn out when GGCAGCCC was run?
Answer: -0.234

Question: For CCATGTCA, which “PBM E-score” value is on record?
Answer: -0.167

Question: Which “PBM E-score” value does the source give for CCTTGGAC here?
Answer: -0.214

Question: CTTAGTGC was tested. Which “PBM E-score” value did it give?
Answer: 0.0405

Question: With GGGGACAC as the sequence, how does the “PBM E-score” value read?
Answer: -0.24

Question: Which “PBM E-score” value does the source give for AGCAAGCG here?
Answer: 0.0981

Question: For AAAACTTT, which “PBM E-score” value is on record?
Answer: -0.0666

Question: Which “PBM E-score” value does the source give for AACGGCCA here?
Answer: -0.0196

Question: With CACTGGTC as the sequence, how does the “PBM E-score” value read?
Answer: -0.155

Question: For AAATGACC, which “PBM E-score” value is on record?
Answer: -0.0306

Question: Which “PBM E-score” value does the source give for GCAACGCC here?
Answer: 0.052

Question: With ATATTAAG as the sequence, how does the “PBM E-score” value read?
Answer: 0.115

Question: With AGTTGCTC as the sequence, how does the “PBM E-score” value read?
Answer: -0.063

Question: Which “PBM E-score” value does the source give for GCGTCAAA here?
Answer: 0.0749

Question: How did the “PBM E-score” value turn out when CGGTTACC was run?
Answer: -0.0522

Question: For ACACGCGT, which “PBM E-score” value is on record?
Answer: 0.258

Question: AGTAGCGG was tested. Which “PBM E-score” value did it give?
Answer: 0.164

Question: Which “PBM E-score” value does the source give for GAATGCCA here?
Answer: -0.132

Question: With CGAAACGC as the sequence, how does the “PBM E-score” value read?
Answer: -0.103

Question: Which “PBM E-score” value does the source give for GGCGGGGA here?
Answer: 0.201

Question: With CCGATCTA as the sequence, how does the “PBM E-score” value read?
Answer: -0.0751

Question: ACAGTGGT was tested. Which “PBM E-score” value did it give?
Answer: -0.0157

Question: How did the “PBM E-score” value turn out when GGCCTAAA was run?
Answer: -0.086

Question: With ACCAGTGG as the sequence, how does the “PBM E-score” value read?
Answer: -0.19

Question: Which “PBM E-score” value does the source give for ACAGACAG here?
Answer: 0.0659

Question: Which “PBM E-score” value does the source give for GACGTCGA here?
Answer: 0.166

Question: With ACTGTCGA as the sequence, how does the “PBM E-score” value read?
Answer: 0.0753

Question: ATCCTTTC was tested. Which “PBM E-score” value did it give?
Answer: -0.0427

Question: For ATCCGAGA, which “PBM E-score” value is on record?
Answer: 0.144

Question: With CACGACCA as the sequence, how does the “PBM E-score” value read?
Answer: -0.00283

Question: How did the “PBM E-score” value turn out when CTACCTGC was run?
Answer: 0.0404

Question: Which “PBM E-score” value does the source give for AGGTATAG here?
Answer: -0.0854

Question: With GCGTAGGA as the sequence, how does the “PBM E-score” value read?
Answer: -0.0794

Question: How did the “PBM E-score” value turn out when CTGAACAC was run?
Answer: 0.195

Question: With AGCCATCC as the sequence, how does the “PBM E-score” value read?
Answer: -0.227

Question: How did the “PBM E-score” value turn out when AGGCCGTC was run?
Answer: -0.111

Question: Which “PBM E-score” value does the source give for CGCCCAGC here?
Answer: 0.0197

Question: With GAGTACCC as the sequence, how does the “PBM E-score” value read?
Answer: -0.154

Question: For AGCTGGGA, which “PBM E-score” value is on record?
Answer: -0.204

Question: For CACAGCCA, which “PBM E-score” value is on record?
Answer: -0.153

Question: Which “PBM E-score” value does the source give for TTGCCAAA here?
Answer: 0.0193

Question: For AACCCTGA, which “PBM E-score” value is on record?
Answer: 0.106

Question: For TACAAACA, which “PBM E-score” value is on record?
Answer: 0.239

Question: For CATGCCTA, which “PBM E-score” value is on record?
Answer: -0.181

Question: For CCCTCGCC, which “PBM E-score” value is on record?
Answer: -0.161

Question: How did the “PBM E-score” value turn out when AACGCCAG was run?
Answer: -0.0006

Question: ATCGATTG was tested. Which “PBM E-score” value did it give?
Answer: 0.299

Question: With GCAAGGGC as the sequence, how does the “PBM E-score” value read?
Answer: -0.125

Question: CCGGCACC was tested. Which “PBM E-score” value did it give?
Answer: 0.0908

Question: For CTTATGCC, which “PBM E-score” value is on record?
Answer: 0.0332

Question: Which “PBM E-score” value does the source give for CACGCGCG here?
Answer: 0.104

Question: GTGGCAGA was tested. Which “PBM E-score” value did it give?
Answer: -0.192

Question: Which “PBM E-score” value does the source give for ATGTGCCG here?
Answer: -0.0218

Question: ACAAGAAG was tested. Which “PBM E-score” value did it give?
Answer: -0.0471

Question: How did the “PBM E-score” value turn out when ATAAGAGG was run?
Answer: 0.162

Question: With CATCCCGG as the sequence, how does the “PBM E-score” value read?
Answer: 0.0408

Question: Which “PBM E-score” value does the source give for ACCTGTAG here?
Answer: -0.201

Question: For GAACATGA, which “PBM E-score” value is on record?
Answer: -0.00823

Question: Which “PBM E-score” value does the source give for CCGCTTAC here?
Answer: 0.184

Question: With CGAAATTA as the sequence, how does the “PBM E-score” value read?
Answer: 0.167

Question: CGAATACC was tested. Which “PBM E-score” value did it give?
Answer: -0.104

Question: Which “PBM E-score” value does the source give for AGATCCAA here?
Answer: -0.142

Question: How did the “PBM E-score” value turn out when TCGCGCGA was run?
Answer: 0.308

Question: How did the “PBM E-score” value turn out when AGAACTAG was run?
Answer: -0.146

Question: How did the “PBM E-score” value turn out when ATTGATCC was run?
Answer: 0.0172

Question: Which “PBM E-score” value does the source give for TAACGTTA here?
Answer: 0.0543

Question: CGCAGAAG was tested. Which “PBM E-score” value did it give?
Answer: 0.116

Question: For ATACCGGA, which “PBM E-score” value is on record?
Answer: -0.0343

Question: How did the “PBM E-score” value turn out when AGGCCGGG was run?
Answer: -0.291

Question: How did the “PBM E-score” value turn out when AGATCTCC was run?
Answer: -0.0869

Question: Which “PBM E-score” value does the source give for GGGTCGAA here?
Answer: -0.202

Question: CAAGTGCG was tested. Which “PBM E-score” value did it give?
Answer: -0.0542

Question: How did the “PBM E-score” value turn out when ATGTGACA was run?
Answer: 0.281

Question: Which “PBM E-score” value does the source give for CCCAATCA here?
Answer: -0.164

Question: How did the “PBM E-score” value turn out when CGTAGGTA was run?
Answer: -0.0215

Question: How did the “PBM E-score” value turn out when CTATCGCA was run?
Answer: 0.0921

Question: Which “PBM E-score” value does the source give for GCCTTGTA here?
Answer: -0.106

Question: With CTGTGCTA as the sequence, how does the “PBM E-score” value read?
Answer: -0.00142

Question: For AAACTCAC, which “PBM E-score” value is on record?
Answer: -0.0266

Question: Which “PBM E-score” value does the source give for ACGACTGC here?
Answer: -0.139

Question: GAGCCACA was tested. Which “PBM E-score” value did it give?
Answer: -0.0272

Question: With ATAGATTG as the sequence, how does the “PBM E-score” value read?
Answer: 0.0192

Question: With CGCCAAAG as the sequence, how does the “PBM E-score” value read?
Answer: -0.227

Question: CAACACGC was tested. Which “PBM E-score” value did it give?
Answer: 0.0436

Question: For GCTACGGA, which “PBM E-score” value is on record?
Answer: -0.204

Question: CGCCCATC was tested. Which “PBM E-score” value did it give?
Answer: -0.198

Question: CGTGAGTC was tested. Which “PBM E-score” value did it give?
Answer: -0.223

Question: For ACGCCTAA, which “PBM E-score” value is on record?
Answer: -0.0311

Question: Which “PBM E-score” value does the source give for ACCCCCAA here?
Answer: -0.153

Question: With AGACTTCG as the sequence, how does the “PBM E-score” value read?
Answer: -0.0445

Question: With CGCGTACG as the sequence, how does the “PBM E-score” value read?
Answer: 0.178

Question: Which “PBM E-score” value does the source give for ACTAATAA here?
Answer: 0.226

Question: How did the “PBM E-score” value turn out when AAACCTCC was run?
Answer: -0.193

Question: With AGTTCTGC as the sequence, how does the “PBM E-score” value read?
Answer: -0.0672

Question: Which “PBM E-score” value does the source give for AGACCTTG here?
Answer: -0.157
